Source: the supplement of paper PMC10338343
± gives the standard deviation. Some of the results follow. Many of these values have a large error.

Each sequence was assayed on EfPiwi piRISC loaded with L1MC piRNA (26 nt) (assay: pre-steady-state target cleavage rate (min^-1); guide: L1MC piRNA 5'p-UAACUAAAUACUAUGCAAGCUGUAGG; MIWI and MILI are mouse PIWI proteins and EfPiwi is from a freshwater sponge; tags in brackets are library labels; higher = faster piRNA-guided slicing of the target). Conditions: auxiliary factor: none (no Gtsf1).
In short: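 Active affinity-purified piRISC (1 nM) loaded with one synthetic guide was mixed with a transcribed, DNA-blocked target RNA library (0.1 nM), with or without 500 nM GTSF1 partner protein, in HEPES–potassium acetate buffer at 33 °C for 0–8 or 0–960 min. Uncleaved targets were sequenced, normalised to depth and to weakly complementary targets, and pooled across three trials, with k3 capped at 0.0001 min^-1. The pre-steady-state cleavage rate was determined with a burst-and-steady-state fit.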

| Sequence | pre-steady-state target cleavage rate |
| --- | --- |
| UCCUGGUACAGCUUGCAUAGUAUAUUGUUA | 0.000409 ± 0.023 |
| UCCUGGAACUGCUUGCAUAGUAUUUAGUAA | 0.001 ± 0.0081 |
| UCCUGGAUGUGUUUGCAUAGUAUUUAGUUA | 0.00155 ± 0.009 |
| UCCUGGAUGUCGAAGCAUAGAAUUUAGUAA | 0.000453 ± 0.023 |
| UCCUGGAUGUCGAACGUAUCUAAUUUAGUUA | 0.000177 ± 0.027 |
| UCCUGGAUCUGGUUGCAUAGUAUUUAGUUA | 0.000933 ± 0.014 |
